# Laboratory results as given in the supplement of paper PMC7125110.
# ± gives the standard error. Many of these values have a large error.
# B1: glmS ribozyme (parent)
# chain: AUAAAAGCGCCAGAACUACAGAAAUGUAGUUGACGAGGAGGAGGUUUAUCGAAUUUUCGGCGGAUGCCUCCAAA
# Variants of: B1
# Assay: self-cleavage kobs at 640 uM GlcN6P; higher = faster cleavage; RNA array
# Conditions: with glucosamine-6-phosphate
# In short: (§1)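 kcat and KM were obtained from weighted Michaelis–Menten fits across concentrations of kobs values. Those came from one- or two-exponential decay fits to per-tile medians normalised to baseline and to non-cleaving reference variants. The variants were barcoded ribozymes transcribed in situ by E. coli RNA polymerase on sequenced MiSeq chips and tracked through a hybridised Cy3 probe at 37 °C, with 40 μM to 10 mM glucosamine-6-phosphate in HEPES/KCl/Mg(OAc)2 buffer flowed in.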
row,Variant,self-cleavage kobs at 640 uM GlcN6P [s⁻¹]
1,G13U C58U C67G,3.47e-05 ± 2.6e-05
2,A12U G13A A53G C70A C71G,2.41e-05 ± 2.1e-05
3,G13C U45A U46C,3.53e-05 ± 2e-05
4,C34G G63U C68G,3.81e-05 ± 2.8e-05
5,U45C A48U,3.62e-05 ± 1.9e-05
6,U54G C58U C67U,2.44e-05 ± 2.1e-05
7,G32A G51A U69A,4.22e-05 ± 3.2e-05
8,U30G G37U G62C C70U C71G,4.11e-05 ± 2.8e-05
9,A6U A53C,2.2e-05 ± 1.9e-05
10,C10A C34U C67G C68G,3.03e-05 ± 1.8e-05
11,A14U G32A C50G U55A C67G,3.69e-05 ± 3e-05
12,U47G C50U,2.26e-05 ± 1.7e-05
13,A6U C50G,3.33e-05 ± 2e-05
14,C34A G38U C50G,4.38e-05 ± 2.9e-05
15,G7A G66U,0.00363 ± 0.0035
16,G62U U69A,2.71e-05 ± 1.7e-05
17,U47G A48C,2.91e-05 ± 1.8e-05
18,A14U C50U C67G,3.55e-05 ± 2.4e-05
19,C50A C71G,2.55e-05 ± 2.2e-05
20,G29U U45C U46G,4.34e-05 ± 2.7e-05
21,G7C C11A C50U U54C C58A C70A,0.00187 ± 0.0017
22,C16G G40U U55A G60U,0.00103 ± 0.00088
23,G37A A53G U55G U65G,2.88e-05 ± 2e-05
24,A52G G59C A64U C68A,3.84e-05 ± 2.2e-05

# 3 entries drawn at random from those above, as already listed:
row,Variant,self-cleavage kobs at 640 uM GlcN6P [s⁻¹]
15,G7A G66U,0.00363 ± 0.0035
14,C34A G38U C50G,4.38e-05 ± 2.9e-05
8,U30G G37U G62C C70U C71G,4.11e-05 ± 2.8e-05

# Quoted from the entries so far for reference:
row,Variant,self-cleavage kobs at 640 uM GlcN6P [s⁻¹]
21,G7C C11A C50U U54C C58A C70A,0.00187 ± 0.0017
22,C16G G40U U55A G60U,0.00103 ± 0.00088

# Variants of: B1
# Assay: self-cleavage kobs at 2500 uM GlcN6P; higher = faster cleavage; RNA array
# Conditions: with glucosamine-6-phosphate
# In short: as §1
row,Variant,self-cleavage kobs at 2500 uM GlcN6P [s⁻¹]
1,G13U C58U C67G,3.33e-05 ± 2.2e-05
2,A33G C70G,2.69e-05 ± 1.7e-05
3,A42C G66U,1.86e-05 ± 1.2e-05
4,C16A G41U,3.4e-05 ± 2.1e-05
5,C34G G63U C68G,1.99e-05 ± 1.8e-05
6,A33C C50G U54A C61U,3.79e-05 ± 2e-05
7,C16U U55G A64U,2.84e-05 ± 2.6e-05
8,G37C A39G U54A,2.43e-05 ± 1.7e-05
9,G9C G13U C50G U55C,0.000131 ± 8.1e-05
10,C10U G37U C67U U69G,2.98e-05 ± 1.7e-05
11,U2A A3U C50A,2.95e-05 ± 2.2e-05
12,A36U C58G C68A C70U,3.31e-05 ± 3.2e-05
13,G13U C34A A36U G38U U69G,2.96e-05 ± 2.9e-05
14,A42G C61A C67A,6.94e-05 ± 4.2e-05
15,G37U U49G U69G,3.36e-05 ± 1.8e-05
16,G51U G60C C68A,3.39e-05 ± 2.3e-05
17,G32A G51A U69A,8.7e-05 ± 4.5e-05
18,A33G C70U C71U,3.74e-05 ± 3.3e-05

row,Variant,self-cleavage kobs at 2500 uM GlcN6P [s⁻¹]
1,C8U U47G G63A C70A,3.2e-05 ± 3e-05
2,A36U G51U C68G,4.81e-05 ± 3.2e-05
3,U54A C61U,1.95e-05 ± 1e-05
4,A12G U46G U54C C67U,3.89e-05 ± 2.1e-05
5,G62U U69A,2.44e-05 ± 1.9e-05
6,A36C G38A A53U C68G,4.36e-05 ± 3.2e-05
7,C16A G63U U69A,2.46e-05 ± 1.9e-05
8,G13U A14U U69A,3.02e-05 ± 2.5e-05
9,G43U C68U C71A,3.13e-05 ± 2.4e-05
10,A14U C50U C67G,5.18e-05 ± 3.5e-05
11,A12U U30A U31A G37C,2.85e-05 ± 2.6e-05
12,C50A C71G,2.72e-05 ± 1.7e-05
13,C16U G32A A33G C58U C70G,3.23e-05 ± 3.2e-05
14,C10G A36U C70G,1.88e-05 ± 1.8e-05
15,A6U C67U C70G,3.55e-05 ± 3e-05
16,C50U U69G C70U,3.01e-05 ± 2.8e-05
17,A14G G32A G60A C61A C67A C70U,5.93e-05 ± 3.8e-05

# Variants of: B1
# Assay: self-cleavage kobs at 10000 uM GlcN6P; higher = faster cleavage; RNA array
# Conditions: with glucosamine-6-phosphate
# In short: as §1
row,Variant,self-cleavage kobs at 10000 uM GlcN6P [s⁻¹]
1,G13U C58U C67G,2e-05 ± 1.4e-05
2,A42C G66U,1.34e-05 ± 8.3e-06
3,A12C C68A,1.76e-05 ± 9.6e-06
4,C16A G41U,2.29e-05 ± 1.5e-05
5,U47A C70A,0.00213 ± 0.0014
6,A14U G32C A53G C67U C71G,2.86e-05 ± 1.5e-05
7,C50G A52U C71A,2.46e-05 ± 2.4e-05
8,G32C U56C,1.28e-05 ± 8.7e-06
9,G35C C50G G59A,2.74e-05 ± 1.9e-05
10,U31G G32C U65G C71U,1.49e-05 ± 1.3e-05
11,A14G C19A A20G G21A G60A,3.57e-05 ± 2.2e-05
12,A12G U46G C58G G63U U69A,2.36e-05 ± 2.1e-05
13,G13C G29U C71G,2.76e-05 ± 2.2e-05

# Variants of: B1
# Assay: self-cleavage kobs at 160 uM GlcN6P; higher = faster cleavage; RNA array
# Conditions: with glucosamine-6-phosphate
# In short: as §1
row,Variant,self-cleavage kobs at 160 uM GlcN6P [s⁻¹]
1,U30C U47A,2.17e-05 ± 1.2e-05
2,G32A U69G,0.000229 ± 0.00013
3,A33G C70G,2.63e-05 ± 1.9e-05
4,A42C G66A,2.64e-05 ± 2.4e-05
5,U30G U46A,2.99e-05 ± 1.7e-05
6,G51U G60C C68A,2.54e-05 ± 2.3e-05
7,A53U G60A C70A,2.34e-05 ± 2.3e-05
8,A42G U45C C70U,3e-05 ± 2.3e-05
9,A15C A52G,2.31e-05 ± 1.4e-05
10,U30A U45G,4.01e-05 ± 2.2e-05
11,A52C U54G A64C C70U,2.42e-05 ± 1.8e-05
12,C58G C68A U69G,4.58e-05 ± 3.8e-05
13,C16A C50A U69C,2.79e-05 ± 2.3e-05
14,A52C C68A,2.08e-05 ± 1.5e-05
15,C50U U69G C70U,4.46e-05 ± 2.7e-05

# Variants of: B1
# Assay: self-cleavage kobs at 40 uM GlcN6P; higher = faster cleavage; RNA array
# Conditions: with glucosamine-6-phosphate
# In short: as §1
row,Variant,self-cleavage kobs at 40 uM GlcN6P [s⁻¹]
1,U47A C70A,1.68e-05 ± 1.5e-05
2,C50G A52U C71A,3.49e-05 ± 2.8e-05
3,U54G C67U C68U,2.45e-05 ± 1.9e-05
